Experimental data as given in PMC9462479.
Results are given in words; binding and its absence hold for the method and conditions named. In cells and extracts the contact can be indirect. These calls come from enrichment with a bait or labelling near it, and not all partners need be listed. Tags and fused reporters may be left off the sequences shown.

Target: T1, FLAG-SREBF1(N), N-terminus of mouse SREBF1, expressed in 3T3-L1–TetON-FLAG-Srebf1(N) adipocytes (mouse) (UniProt Q9WTN3)
T1 sequence: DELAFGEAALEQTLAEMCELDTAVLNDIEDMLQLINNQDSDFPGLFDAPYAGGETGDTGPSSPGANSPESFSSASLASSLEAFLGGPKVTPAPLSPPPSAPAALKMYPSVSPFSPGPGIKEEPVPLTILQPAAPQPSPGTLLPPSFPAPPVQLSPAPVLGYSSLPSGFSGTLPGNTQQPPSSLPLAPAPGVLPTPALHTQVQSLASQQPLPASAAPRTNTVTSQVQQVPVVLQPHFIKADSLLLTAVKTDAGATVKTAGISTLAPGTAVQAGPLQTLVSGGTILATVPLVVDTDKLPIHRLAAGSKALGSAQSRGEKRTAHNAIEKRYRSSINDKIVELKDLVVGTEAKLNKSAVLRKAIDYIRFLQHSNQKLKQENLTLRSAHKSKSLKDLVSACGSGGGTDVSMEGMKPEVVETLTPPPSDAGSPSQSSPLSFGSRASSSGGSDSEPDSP
Test: affinity purification with mass spectrometry; FLAG-tagged bait immunoprecipitated with anti-FLAG M2 Affinity Gel from dialysed nuclear extracts (150 mM KCl, 0.05% NP40) of differentiated 3T3-L1 TetON cells treated with 10 μg/mL doxycycline; eluted with FLAG peptide; LC-MS/MS

B1: ARMC5, endogenous in 3T3-L1 adipocytes (protein, UniProt Q5EBP3 1-926)
chain: MAAARPALTDSLSFCLAQLTAAAGEGPGGGKDPATNETPLGRALLALRTRHIKAAEGIERFRARGGLRPLLALLRRTAAAGPAPSQAASGSAPSSVASAGSTPGHAPAAESLLTPSLPMRLRKTLDLALSILANCCTEGACRAEVRRLGGILPLVTILQCVKTDSIQNRTARALGNLAMEPESCRDIHSAGAVPFLVESLTACQDSQCLQSIVRALRNLADSPQHRLALAQQGAVRPLAELLATAPDPALTAALVRALLELSRGCSRACAEQLSLGGALGPLVSLASHPKRAIREAAILILANLCAQGLVRPALGNAGGVEVLLGELRRRRSPGGSSSATQQPLVRAVCLLCREAINRARLRDAGGLELLMGLLQDPGASAWHPRVVAALVGFLYDTGALGKLQALGLVPLLARQLCGEAGEEEEEGIEAASWDFPEERTSGQAEGGSFRSLRLWLISEGYAAGPGDISPDWSPERCPMPEPSESVSPTPGQTSMSTPRTLRKPGRIPAATPEEPWGQEGPALLLLSRFSQAPDPSGALVTGPALCGLLAYVTGAPGPPNPRALRILARLTCNPACLEAFVRTYGAALLRAWLVLGVSPDDWPVPHARPVHRSQHRELGEMLLQNLTVQAESPFGVGALTHLLLSGSPEDRVACALTLPFICRKPTLWRRLLLDQGGLRLLLTALTQPAPHPLFLFFAADSLSCLQGLVSPTASPVPLPALPLELDSPPPCLYEPLLGPAPAPAPDLHFVLDSGLQLPAQRAASAAASPFFRALLSGSFAEAQMDLVPLRGLSPGAAWPVLHHLHGCRGCGAALGPVPPPGQPLLGSKAEEALEAAGRFLLPALEEELEEAVGRIHLSPRGGPESVGEVFRLGRPRLAAHCARWTLEPGQCPRKRALALTGLVEAAGEEAGPLTEALLAVVMGIES
B1 was tested, and the binding was “binds”.
